Data: US20140094414A1, “COMPOSITION FOR PREVENTING OR TREATING NEURODEGENERATIVE DISEASE INCLUDING BIOACTIVE PEPTIDE AS EFFECTIVE COMPONENT” (PUKYONG NATIONAL UNIVERSITY INDUSTRY-UNIVERSITY CO, priority 2012, published 2014)
Not every detail of the peptide structures is certain; ends, links or a residue may be inferred. No end group written: not given here.

Tests used:
Format in all cases: cell-based, murine
cathepsin D [1] = experiment: Cathepsin D level, enzyme immune assay in Aβ42-stimulated BV2 cells; details: pre-treatment 2 h, then Aβ42 (5) 24 h
cathepsin D [2] = experiment: RT-PCR cathepsin D mRNA in Aβ42-stimulated BV2 cells; details: 10, 50, 100 μM, Aβ42 stimulation
IL-13 [3] = experiment: RT-PCR IL-13 mRNA in Aβ42-stimulated BV2 cells; details: 10, 50, 100 μM, Aβ42 stimulation
cathepsin B [4] = experiment: Western blot cathepsin B protein in Aβ42-stimulated BV2 cells; details: 10, 50, 100 μM, Aβ42 stimulation
COX-2 [5] = experiment: RT-PCR COX-2 mRNA in Aβ42-stimulated BV2 cells; details: 10, 50, 100 μM 2 h, then Aβ42 (5) 24 h
IL-1β [6] = experiment: Western blot IL-1β protein in Aβ42-stimulated BV2 cells; details: 10, 50, 100 μM 2 h, then Aβ42 (5) 24 h
IL-6 [7] = experiment: IL-6 immunoassay in Aβ42-stimulated BV2 cells; details: 10, 50, 100 μM 6 h, then Aβ42 1 μM
IL-13 [8] = experiment: Western blot IL-13 protein in Aβ42-stimulated BV2 cells; details: 10, 50, 100 μM, Aβ42 stimulation
cathepsin B [9] = experiment: Cathepsin B level, enzyme immune assay in Aβ42-stimulated BV2 cells; details: then Aβ42 (5) 24 h
cathepsin B [10] = experiment: RT-PCR cathepsin B mRNA in Aβ42-stimulated BV2 cells; details: 10, 50, 100 μM, Aβ42 stimulation
PGE2 = PGE2 enzyme immunometric assay in Aβ42-stimulated BV2 cells; details: 10, 50, 100 μM 6 h, then Aβ42 1 μM 24 h
IL-1β [11] = experiment: IL-1β immunoassay in Aβ42-stimulated BV2 cells; details: 10, 50, 100 μM 6 h, then Aβ42 1 μM
IL-4 [12] = experiment: Western blot IL-4 protein in Aβ42-stimulated BV2 cells; details: 10, 50, 100 μM, Aβ42 stimulation
iNOS [13] = experiment: RT-PCR iNOS mRNA in Aβ42-stimulated BV2 cells; details: 10, 50, 100 μM 2 h, then Aβ42 (5) 24 h
IL-4 [14] = experiment: IL-4 production, enzyme immune assay in Aβ42-stimulated BV2 cells; details: 10, 50, 100 μM 2 h, then Aβ42 (5) 24 h
IL-1β [15] = experiment: RT-PCR IL-1β mRNA in Aβ42-stimulated BV2 cells
IL-13 [16] = experiment: IL-13 production, enzyme immune assay in Aβ42-stimulated BV2 cells; details: 10, 50, 100 μM 2 h, then Aβ42 (5) 24 h
TGF-β = experiment: Western blot TGF-β protein in Aβ42-stimulated BV2 cells; details: 10, 50, 100 μM, Aβ42 stimulation
IL-6 [17] = experiment: RT-PCR IL-6 mRNA in Aβ42-stimulated BV2 cells; details: 10, 50, 100 μM 2 h, then Aβ42 (5) 24 h
cathepsin D [18] = experiment: Western blot cathepsin D protein in Aβ42-stimulated BV2 cells; details: 10, 50, 100 μM, Aβ42 stimulation
TNF-α [19] = experiment: TNF-α immunoassay in Aβ42-stimulated BV2 cells; details: 10, 50, 100 μM 6 h, then Aβ42 1 μM
iNOS [20] = experiment: Western blot iNOS protein in Aβ42-stimulated BV2 cells; details: 10, 50, 100 μM 2 h, then Aβ42 (5) 24 h
NO = NO production, Griess reaction in Aβ42-stimulated BV2 cells; details: then 1 μM Aβ42 48 h
Procedure: NO levels in the cultured BV2 cells' supernatants were measured by the Griess reaction. In brief, BV2 cells were pre incubated overnight in 24-well plates using DMEM without phenol red at a density 2×10^5 cells/ml, followed by the treatment with the HIP-1 peptide of the present invention having various concentrations (10, 50, 100 μM) as a sample for 6 h. After 6 h, the NO production was stimulated by adding Aβ42 (1 μM final concentration) and incubated for further 48 h. Then 50 μl of culture supernatants from each samples was mixed with the same volume of the Griess reagent [1% sulfanilamide/0.1% N-1-naphthyl]-ethylenediamine dihydrochloride/2.5% phosphoric acid] following the incubation for 15 min. Absorbance values were read at 540 nm using ELISA microplate reader (Tecan GmbH, Austria). Blank was not treated, and control was activated BV2 cells by exposing Aβ42 without the HIP-1 peptide of the present invention.

[21] = test system: intracellular reactive oxygen species (ROS) in BV2 cells; experiment: Intracellular ROS, DCFH-DA fluorescence in Aβ42-stimulated BV2 cells; details: pre-treatment 10, 50, 100 μM 6 h, then 5 μM Aβ42
TNF-α [22] = experiment: RT-PCR TNF-α mRNA in Aβ42-stimulated BV2 cells
COX-2 [23] = experiment: Western blot COX-2 protein in Aβ42-stimulated BV2 cells; details: 10, 50, 100 μM 2 h, then Aβ42 (5) 24 h
TNF-α [24] = experiment: Western blot TNF-α protein in Aβ42-stimulated BV2 cells; details: 10, 50, 100 μM 2 h, then Aβ42 (5) 24 h
IL-6 [25] = experiment: Western blot IL-6 protein in Aβ42-stimulated BV2 cells; details: 10, 50, 100 μM 2 h, then Aβ42 (5) 24 h
[26] = 10, 50, 100 μM 2 h, then Aβ42 (5) 24 h

GTEDELDK [HTP-1]
cathepsin D production (cathepsin D [1]): significant reduction
cathepsin D mRNA expression (cathepsin D [2]): suppressed depending on the treated concentration
level of IL-13 mRNA expression (IL-13 [3]): no changes
cathepsin B protein expression (cathepsin B [4]): suppressed depending on the treated concentration
COX-2 mRNA expression (COX-2 [5]): effectively suppressed depending on the treated concentrations
IL-1β protein expression (IL-1β [6]): effectively suppressed depending on the treated concentrations
IL-6 production (ELISA) (IL-6 [7]): no significant change
level of IL-13 protein expression (IL-13 [8]): no changes
Cathepsin B level (cathepsin B [9]; 10 μM peptide 2 h): 94.93±2%
Cathepsin B level (cathepsin B [9]; 50 μM peptide 2 h): 68.46±5.51%
Cathepsin B level (cathepsin B [9]; 100 μM peptide 2 h): 46.91±2.98%
cathepsin B mRNA expression (cathepsin B [10]): suppressed depending on the treated concentration
amount of PGE2 production (PGE2): decreased depending on the treated concentration
amount of IL-1β production (IL-1β [11]): decreased depending on the treated concentration
level of IL-4 protein expression (IL-4 [12]): up-regulated depending the treated concentration
iNOS mRNA expression (iNOS [13]): effectively suppressed depending on the treated concentrations
level of IL-4 production (IL-4 [14]): increased depending on the treated concentration
IL-1β mRNA expression (IL-1β [15]; 100 μM): highly suppressed
IL-1β mRNA expression (IL-1β [15]; [26]): effectively suppressed depending on the treated concentrations
level of IL-13 production (IL-13 [16]): rarely changed
level of TGF-β protein expression (TGF-β): up-regulated depending the treated concentration
IL-6 mRNA expression (IL-6 [17]): no significant change
cathepsin D protein expression (cathepsin D [18]): suppressed depending on the treated concentration
amount of TNF-α production (TNF-α [19]): decreased depending on the treated concentration
iNOS protein expression (iNOS [20]): effectively suppressed depending on the treated concentrations
NO level (NO; 10 μM peptide 6 h): 16.05 ± 1.75 µM
NO level (NO; 50 μM peptide 6 h): 13.27 ± 1.81 µM
NO level (NO; 100 μM peptide 6 h): 10.17 ± 2.06 µM
reactive oxygen species (DCF fluorescence) [21]: suppressed depending on the concentration
TNF-α mRNA expression (TNF-α [22]; 100 μM): highly suppressed
TNF-α mRNA expression (TNF-α [22]; [26]): effectively suppressed depending on the treated concentrations
COX-2 protein expression (COX-2 [23]): effectively suppressed depending on the treated concentrations
TNF-α protein expression (TNF-α [24]): effectively suppressed depending on the treated concentrations
IL-6 protein expression (IL-6 [25]): no significant change
